This passage reports binding results from article PMC3182218.

Chains of the proteins cited; added tags and fusions are not shown. Lines headed by an entry give the natural chain unless they say otherwise; changes in a name come on top. A line that says so, or that is headed by a name, gives the form on record, which may keep a tag or linker.
UniProt Q96B42: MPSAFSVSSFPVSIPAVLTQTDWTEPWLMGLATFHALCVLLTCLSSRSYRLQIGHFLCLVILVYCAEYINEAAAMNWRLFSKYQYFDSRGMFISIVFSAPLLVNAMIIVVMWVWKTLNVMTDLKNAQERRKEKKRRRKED
TMEM18C→A (TMEM18 with all four cysteines mutated into alanines) (Q96B42, form named): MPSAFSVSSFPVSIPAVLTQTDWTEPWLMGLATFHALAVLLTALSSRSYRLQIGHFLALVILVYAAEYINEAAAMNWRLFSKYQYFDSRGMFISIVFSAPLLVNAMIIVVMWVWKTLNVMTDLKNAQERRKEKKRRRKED

Results are given in words; binding and its absence hold for the method and conditions named. In cells and extracts the contact can be indirect. Some results given as binding are weak or reduced against the parent protein; the word gives no strength.

This experiment addresses Transmembrane protein 18 (TMEM18), Flag-tagged or HA-tagged (UniProt Q96B42). The experiment is described as follows: co-IP; 293T cells co-transfected with TMEM18-Flag and an HA-tagged TMEM18 construct; extracts in RIPA buffer, anti-FLAG M2 affinity gel, 4°C, one hour; washed with RIPA buffer plus 200 mM NaCl; blot probed with anti-HA antibody.
As for “TMEM18ΔC (C-terminal deleted TMEM18, lacks the last 13 C-terminal amino acids) (from UniProt Q96B42 1-127) (domain or fragment)”, the binding entry is recorded as “binds”.
To “TMEM18C→A (TMEM18 with all four cysteines mutated into alanines) (from UniProt Q96B42 1-140)” belongs “binds”; to “Transmembrane protein 18 (TMEM18), Flag-tagged or HA-tagged (from UniProt Q96B42 1-140)”, “binds”.
